4 sequences from PMC8294330 can be followed below.

Series [1] has as its system PNPase WT + Hfq. The series can be described thus: EMSA. The note with it: 400 nM RNA, 400 nM Hfq hexamer, ternary complex, EMSA: 0.4 uM RNA, PNPase trimer 1:1 and 3:1 over RNA, 20 mM Tris pH 7.5, 100 mM NaCl, 1 mM MgCl2, 1 mM DTT, 30 C 20 min, native PAA gel with 10% glycerol, recombinant protein. A general note: In EMSA bound probe runs differently from free probe, usually more slowly.

Series [2] concerns PNPase WT + Hfq. In words: cryo-EM. The note with it: 2D class averages only; recombinant protein; probe letters rebuilt from the primers and the genome; part of a longer molecule.

For at least one entry, the source does not settle the construct or the ends of the probe. For some of these results: At least one verdict rests on a figure or table, not on a statement of the authors.

With “GCUGAAAAACAUAACCCAUAAAAUGCUAGCUGUACCAGGAACCACCUCCUUAGCCUGUGUAAUCUCCCUUACACGGGCUUAUUUUUU [CyaR]”, the binding result with PNPase WT + Hfq [1] was “binds”.

Regarding “ACUUCCUGAGCCGGAACGAAAAGUUUUAUCGGAAUGCGUGUUCUGGUGAACUUUUGGCUUACGGUUGUGAUGUUGUGUUGUUGUGUUUGCAAUUGGUCUGCGAUUCAGACCAUGGUAGCAAAGCUACCUUUUUUCACUUCCUGUACAUUUACCCUGUCUGUCCAUAGUGAUUAAUGUAGCACCGCCUAAUUGCGGUGCUUUUUUUU [GcvB]”, the binding result in the series on PNPase WT + Hfq [2] is given as “binds”.

Consider “GGGAAAGAUAAGAAUAAAAUCAAAGCAAUAAGCAGUGUCGUGAAACCACCUUCGGGUGGUUUUUUU [3'ETSleuZ]”, for which the binding result in the series with PNPase WT + Hfq [1] is listed as “binds”.

Take “GCGAUCAGGAAGACCCUCGCGGAGAACCUGAAAGCACGACAUUGCUCACAUUGCUUCCAGUAUUACUUAGCCAGCCGGGUGCUGGCUUUUUUUUU [RyhB]”: the binding result with PNPase WT + Hfq [1] (probe letters rebuilt from the primers and the genome) was “binds”.
